# Test results reported in the supplement of paper PMC8728848.
# Some of the results follow.
# B1: PX14404-bvu-534-26-534 (Bacteroides vulgatus) (protein)
# chain: EDPRGKLTPENFFSTQDELNMSIYALYQKVNLSQVYTNMQLPQWQGDDITTNPGSNKQPAAEMDKFAAANNNKGVKDAWNMHYAIVKAANLIIQGASKTPTTQDEINIALGQAKFWRAYAYFTLVRLWGPLPMNLDNVNDDYTKPLSPVEEVYGHIVQDLTEAEAVLPTGYSGSPRFLNGVNVYVTRQAAKSTLAAVYMAMAGWPMNKTEYYAKAAEKAKEVIEGVNRGEYEYKLDKDYKDVYAMSNNYNNETVLGINYSPFVDWAQDSELTSCNQFESLGGWGDAWGEIRFWKEFPDGPRKDATYDPKIRLKDGTLVDWWELKEDGTPVVPEHHPMFSIFSVNWDPASKVNTSAPYDYTKPASQNMCNDHRHRIIRYSEVLLWYAEAKARTGQTDELAFKCLNDVRERAGLEPLTGLSADDLAEAAYKEHGWEVAGYWVALVTRRADQFRMNRLKDTFKERAENTAVEVADGILVKESVEYTNRTWSDNLMYLPYPDMDSQKNPNLVR
# What was measured:
# Assay in all cases: glycan array binding signal (z-score within array); higher = stronger binding
# Conditions in all cases: glycan notation: IUPAC condensed, linker removed
# [1] = biological target: Neu5Ac(a2-3)Gal(b1-4)GlcNAc(b1-2)[Neu5Ac(a2-3)Gal(b1-4)GlcNAc(b1-4)]Man(a1-3)[GlcNAc(b1-4)][Neu5Ac(a2-3)Gal(b1-4)GlcNAc(b1-4)Man(a1-6)]Man(b1-4)GlcNAc(b1-4)GlcNAc
# Method in brief: (§1)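 Glycan array binding is given as a within-array Z-score, which can be read as non-binding when negative. The arrays, 3228 of them, came from the Consortium for Functional Glycomics database and were retained only where the protein sequence was available. Z-scores were averaged across arrays of the same protein sequence at different concentrations or buffers and across linkers.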
# [2] = biological target: Neu5Ac(a2-3)Gal(b1-4)GlcNAc(b1-2)[Neu5Ac(a2-3)Gal(b1-4)GlcNAc(b1-6)]Man(a1-6)[Neu5Ac(a2-3)Gal(b1-4)GlcNAc(b1-2)Man(a1-3)]Man(b1-4)GlcNAc(b1-4)GlcNAc
# Method in brief: as §1
# [3] = biological target: Neu5Ac(a2-3)Gal(b1-4)GlcNAc(b1-2)[Neu5Ac(a2-3)Gal(b1-4)GlcNAc(b1-6)]Man(a1-6)[Neu5Ac(a2-3)Gal(b1-4)GlcNAc(b1-2)Man(a1-3)][GlcNAc(b1-4)]Man(b1-4)GlcNAc(b1-4)GlcNAc
# Method in brief: as §1
# [4] = biological target: Neu5Ac(a2-3)Gal(b1-4)GlcNAc(b1-3)Gal
# Method in brief: as §1
# [5] = biological target: Neu5Ac(a2-3)Gal(b1-4)GlcNAc(b1-3)Gal(b1-3)GlcNAc
# Method in brief: as §1
# [6] = biological target: Neu5Ac(a2-3)Gal(b1-4)GlcNAc(b1-3)Gal(b1-4)GlcNAc
# Method in brief: as §1
# [7] = biological target: Neu5Ac(a2-3)Gal(b1-4)GlcNAc(b1-3)Gal(b1-4)GlcNAc(b1-2)Man(a1-3)[Neu5Ac(a2-3)Gal(b1-4)GlcNAc(b1-3)Gal(b1-4)GlcNAc(b1-2)Man(a1-6)]Man(b1-4)GlcNAc(b1-4)GlcNAc
# Method in brief: as §1
# [8] = biological target: Neu5Ac(a2-3)Gal(b1-4)GlcNAc(b1-3)Gal(b1-4)GlcNAc(b1-3)Gal(b1-4)GlcNAc
# Method in brief: as §1
# [9] = biological target: Neu5Ac(a2-3)Gal(b1-4)GlcNAc(b1-3)Gal(b1-4)GlcNAc(b1-3)Gal(b1-4)GlcNAc(b1-2)Man(a1-3)[Neu5Ac(a2-3)Gal(b1-4)GlcNAc(b1-3)Gal(b1-4)GlcNAc(b1-3)Gal(b1-4)GlcNAc(b1-2)Man(a1-6)]GalNAc
# Method in brief: as §1
# [10] = biological target: Neu5Ac(a2-3)Gal(b1-4)GlcNAc(b1-3)Gal(b1-4)GlcNAc(b1-3)GalNAc
# Method in brief: as §1
# [11] = biological target: Neu5Ac(a2-3)Gal(b1-4)GlcNAc(b1-3)Gal(b1-4)GlcNAc(b1-3)[Neu5Ac(a2-3)Gal(b1-4)GlcNAc(b1-3)Gal(b1-4)GlcNAc(b1-6)]GalNAc
# Method in brief: as §1
# [12] = biological target: Neu5Ac(a2-3)Gal(b1-4)GlcNAc(b1-3)Gal(b1-4)GlcNAc(b1-6)[Gal(b1-3)]GalNAc
# Method in brief: as §1
# [13] = biological target: Neu5Ac(a2-3)Gal(b1-4)GlcNAc(b1-3)Gal(b1-4)[Fuc(a1-3)]GlcNAc
# Method in brief: as §1
# [14] = biological target: Neu5Ac(a2-3)Gal(b1-4)GlcNAc(b1-3)GalNAc
# Method in brief: as §1
# [15] = biological target: Neu5Ac(a2-3)Gal(b1-4)GlcNAc(b1-3)[Neu5Ac(a2-3)Gal(b1-4)GlcNAc(b1-6)]GalNAc
# Method in brief: as §1
# [16] = biological target: Neu5Ac(a2-3)Gal(b1-4)GlcNAc(b1-6)GalNAc
# Method in brief: as §1
# [17] = biological target: Neu5Ac(a2-3)Gal(b1-4)GlcNAc(b1-6)[Gal(b1-3)]GalNAc
# Method in brief: as §1
# [18] = biological target: Neu5Ac(a2-3)Gal(b1-4)GlcNAc(b1-6)[Neu5Ac(a2-3)Gal(b1-3)]GalNAc
# Method in brief: as §1
# [19] = biological target: Neu5Ac(a2-3)Gal(b1-4)GlcNAc6S
# Method in brief: as §1
# [20] = biological target: Neu5Ac(a2-3)Gal(b1-4)[Fuc(a1-3)]GlcNAc
# Method in brief: as §1
# [21] = biological target: Neu5Ac(a2-3)Gal(b1-4)[Fuc(a1-3)]GlcNAc(b1-2)Man
# Method in brief: as §1
# [22] = biological target: Neu5Ac(a2-3)Gal(b1-4)[Fuc(a1-3)]GlcNAc(b1-3)Gal
# Method in brief: as §1
# [23] = biological target: Neu5Ac(a2-3)Gal(b1-4)[Fuc(a1-3)]GlcNAc(b1-3)Gal(b1-4)GlcNAc
# Method in brief: as §1
# [24] = biological target: Neu5Ac(a2-3)Gal(b1-4)[Fuc(a1-3)]GlcNAc(b1-3)Gal(b1-4)[Fuc(a1-3)]GlcNAc(b1-3)Gal(b1-4)[Fuc(a1-3)]GlcNAc
# Method in brief: as §1
# [25] = biological target: Neu5Ac(a2-3)Gal(b1-4)[Fuc(a1-3)]GlcNAc(b1-3)GalNAc
# Method in brief: as §1
# [26] = biological target: Neu5Ac(a2-3)Gal(b1-4)[Fuc(a1-3)]GlcNAc(b1-6)[Gal(b1-3)]GalNAc
# Method in brief: as §1
# [27] = biological target: Neu5Ac(a2-3)Gal(b1-4)[Fuc(a1-3)]GlcNAc(b1-6)[Neu5Ac(a2-3)Gal(b1-3)]GalNAc
# Method in brief: as §1
# [28] = biological target: Neu5Ac(a2-3)Gal(b1-4)[Fuc(a1-3)]GlcNAc6S
# Method in brief: as §1
# [29] = biological target: Neu5Ac(a2-3)Gal6S(b1-4)GlcNAc
# Method in brief: as §1
# [30] = biological target: Neu5Ac(a2-3)Gal6S(b1-4)[Fuc(a1-3)]GlcNAc
# Method in brief: as §1
# [31] = biological target: Neu5Ac(a2-3)GalNAc
# Method in brief: as §1
# [32] = biological target: Neu5Ac(a2-3)GalNAc(b1-4)GlcNAc
# Method in brief: as §1
# [33] = biological target: Neu5Ac(a2-3)[GalNAc(b1-4)]Gal(b1-4)Glc
# Method in brief: as §1
# [34] = biological target: Neu5Ac(a2-3)[GalNAc(b1-4)]Gal(b1-4)GlcNAc
# Method in brief: as §1
# [35] = biological target: Neu5Ac(a2-3)[GalNAc(b1-4)]Gal(b1-4)GlcNAc(b1-3)GalNAc
# Method in brief: as §1
# [36] = biological target: Neu5Ac(a2-3)[Neu5Ac(a2-6)]GalNAc
# Method in brief: as §1
# [37] = biological target: Neu5Ac(a2-6)Gal
# Method in brief: as §1
binder,measurement,setting,value
B1,glycan array binding signal (z-score),[1],0.216
same,glycan array binding signal (z-score),[2],-0.695
same,glycan array binding signal (z-score),[3],-0.687
same,glycan array binding signal (z-score),[4],-1.05
same,glycan array binding signal (z-score),[5],-0.301
same,glycan array binding signal (z-score),[6],-0.385
same,glycan array binding signal (z-score),[7],-0.044
same,glycan array binding signal (z-score),[8],0.484
same,glycan array binding signal (z-score),[9],0.891
same,glycan array binding signal (z-score),[10],-0.217
same,glycan array binding signal (z-score),[11],0.145
same,glycan array binding signal (z-score),[12],0.521
same,glycan array binding signal (z-score),[13],0.55
same,glycan array binding signal (z-score),[14],-0.13
same,glycan array binding signal (z-score),[15],0.349
same,glycan array binding signal (z-score),[16],0.028
same,glycan array binding signal (z-score),[17],-0.005
same,glycan array binding signal (z-score),[18],1.1
same,glycan array binding signal (z-score),[19],0.686
same,glycan array binding signal (z-score),[20],-1.06
same,glycan array binding signal (z-score),[21],-0.51
same,glycan array binding signal (z-score),[22],-1.09
same,glycan array binding signal (z-score),[23],-0.297
same,glycan array binding signal (z-score),[24],0.228
same,glycan array binding signal (z-score),[25],0.921
same,glycan array binding signal (z-score),[26],-0.408
same,glycan array binding signal (z-score),[27],3.23
same,glycan array binding signal (z-score),[28],-0.216
same,glycan array binding signal (z-score),[29],0.553
same,glycan array binding signal (z-score),[30],-0.892
same,glycan array binding signal (z-score),[31],0.608
same,glycan array binding signal (z-score),[32],-0.434
same,glycan array binding signal (z-score),[33],-1.43
same,glycan array binding signal (z-score),[34],-0.805
same,glycan array binding signal (z-score),[35],1.38
same,glycan array binding signal (z-score),[36],1.18
same,glycan array binding signal (z-score),[37],1.3

# Some of the entries so far, bar-delimited:
binder | measurement | setting | value
B1 | glycan array binding signal (z-score) | [30] | -0.892
same | glycan array binding signal (z-score) | [34] | -0.805
